According to publication PMC11574045, “A cofactor-induced repressive type of transcription factor condensation can be induced by synthetic peptides to suppress tumorigenesis” (The EMBO Journal, 2024):
No constants are given. Whether binding was seen depends on the method and setting. In cells and extracts the contact can be indirect. Here binding means that the protein was enriched with, or labelled near, the bait; the list need not be complete.

The chains behind the UniProt entries cited, without tags or fusion partners.
UniProt Q15561: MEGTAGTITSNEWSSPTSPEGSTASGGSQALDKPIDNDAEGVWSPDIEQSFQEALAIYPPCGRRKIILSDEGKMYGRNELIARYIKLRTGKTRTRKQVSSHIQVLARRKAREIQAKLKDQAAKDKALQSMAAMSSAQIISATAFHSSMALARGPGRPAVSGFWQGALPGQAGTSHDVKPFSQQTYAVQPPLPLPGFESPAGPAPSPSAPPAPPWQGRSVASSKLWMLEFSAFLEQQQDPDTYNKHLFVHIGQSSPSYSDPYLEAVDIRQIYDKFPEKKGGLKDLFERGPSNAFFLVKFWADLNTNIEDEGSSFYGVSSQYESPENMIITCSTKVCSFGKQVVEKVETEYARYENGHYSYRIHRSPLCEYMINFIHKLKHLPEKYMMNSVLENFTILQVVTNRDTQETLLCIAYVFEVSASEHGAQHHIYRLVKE

B1: CTCF (protein, UniProt P49711 1-727)
chain: MEGDAVEAIVEESETFIKGKERKTYQRRREGGQEEDACHLPQNQTDGGEVVQDVNSSVQMVMMEQLDPTLLQMKTEVMEGTVAPEAEAAVDDTQIITLQVVNMEEQPINIGELQLVQVPVPVTVPVATTSVEELQGAYENEVSKEGLAESEPMICHTLPLPEGFQVVKVGANGEVETLEQGELPPQEDPSWQKDPDYQPPAKKTKKTKKSKLRYTEEGKDVDVSVYDFEEEQQEGLLSEVNAEKVVGNMKPPKPTKIKKKGVKKTFQCELCSYTCPRRSNLDRHMKSHTDERPHKCHLCGRAFRTVTLLRNHLNTHTGTRPHKCPDCDMAFVTSGELVRHRRYKHTHEKPFKCSMCDYASVEVSKLKRHIRSHTGERPFQCSLCSYASRDTYKLKRHMRTHSGEKPYECYICHARFTQSGTMKMHILQKHTENVAKFHCPHCDTVIARKSDLGVHLRKQHSYIEQGKKCRYCDAVFHERYALIQHQKSHKNEKRFKCDQCDYACRQERHMIMHKRTHTGEKPYACSHCDKTFRQKQLLDMHFKRYHDPNFVPAAFVCSKCGKTFTRRNTMARHADNCAGPDGVEGENGGETKKSKRGRKRKMRSKKEDSSDSENAEPDLDDNEDEEEPAVEIEPEPEPQPVTPAPPPAKKRRGRPPGRTNQPKQNQPTAIIQVEDQNTGAIENIIVEVKKEPDAEPAEGEEEEAQPAATDAPNGDLTPEMILSMMDR
B2: VGLL1 (protein, UniProt Q99990 1-258)
chain: MEEMKKTAIRLPKGKQKPIKTEWNSRCVLFTYFQGDISSVVDEHFSRALSNIKSPQELTPSSQSEGVMLKNDDSMSPNQWRYSSPWTKPQPEVPVTNRAANCNLHVPGPMAVNQFSPSLARRASVRPGELWHFSSLAGTSSLEPGYSHPFPARHLVPEPQPDGKREPLLSLLQQDRCLARPQESAARENGNPGQIAGSTGLLFNLPPGSVHYKKLYVSRGSASTSLPNETLSELETPGKYSLTPPNHWGHPHRYLQHL
B3: ARID3B (protein, UniProt Q8IVW6 1-561)
chain: MEPLQQQQQQQQQQQKQPHLAPLQMDAREKQGQQMREAQFLYAQKLVTQPTLLSATAGRPSGSTPLGPLARVPPTAAVAQVFERGNMNSEPEEEDGGLEDEDGDDEVAEVAEKETQAASKYFHVQKVARQDPRVAPMSNLLPAPGLPPHGQQAKEDHTKDASKASPSVSTAGQPNWNLDEQLKQNGGLAWSDDADGGRGREISRDFAKLYELDGDPERKEFLDDLFVFMQKRGTPINRIPIMAKQILDLYMLYKLVTEKGGLVEIINKKIWREITKGLNLPTSITSAAFTLRTQYMKYLYAYECEKKALSSPAELQAAIDGNRREGRRPSYSSSLFGYSPAAATAAAAAGAPALLSPPKIRFPILGLGSSSGTNTSSPRISPATTLRKGDGAPVTTVPVPNRLAVPVTLASQQAGTRTAALEQLRERLESGEPAEKKASRLSEEEQRLVQQAFQRNFFSMARQLPMKIRINGRAEDRAEASAAALNLTTSSIGSINMSVDIDGTTYAGVLFAQKPVVHLITGSAPQSLGSSASSSSSSHCSPSPTSSRGTPSAEPSTSWSL
B4: VGLL4 (protein, UniProt Q14135 1-290)
chain: METPLDVLSRAASLVHADDEKREAALRGEPRIQTLPVASALSSHRTGPPPISPSKRKFSMEPGDEDLDCDNDHVSKMSRIFNPHLNKTANGDCRRDPRERSRSPIERAVAPTMSLHGSHLYTSLPSLGLEQPLALTKNSLDASRPAGLSPTLTPGERQQNRPSVITCASAGARNCNLSHCPIAHSGCAAPGPASYRRPPSAATTCDPVVEEHFRRSLGKNYKEPEPAPNSVSITGSVDDHFAKALGDTWLQIKAAKDGASSSPESASRRGQPASPSAHMVSHSHSPSVVS
B5: EMSY (protein, UniProt Q7Z589 1-1322)
chain: MPVVWPTLLDLSRDECKRILRKLELEAYAGVISALRAQGDLTKEKKDLLGELSKVLSISTERHRAEVRRAVNDERLTTIAHNMSGPNSSSEWSIEGRRLVPLMPRLVPQTAFTVTANAVANAAIQHNASLPVPAETGSKEVVCYSYTSTTSTPTSTPVPSGSIATVKSPRPASPASNVVVLPSGSTVYVKSVSCSDEDEKPRKRRRTNSSSSSPVVLKEVPKAVVPVSKTITVPVSGSPKMSNIMQSIANSLPPHMSPVKITFTKPSTQTTNTTTQKVIIVTTSPSSTFVPNILSKSHNYAAVTKLVPTSVIASTTQKPPVVITASQSSLVSNSSSGSSSSTPSPIPNTVAVTAVVSSTPSVVMSTVAQGVSTSAIKMASTRLPSPKSLVSAPTQILAQFPKQHQQSPKQQLYQVQQQTQQQVAQPSPVSHQQQPQQSPLPPGIKPTIQIKQESGVKIITQQVQPSKILPKPVTATLPTSSNSPIMVVSSNGAIMTTKLVTTPTGTQATYTRPTVSPSIGRMAATPGAATYVKTTSGSIITVVPKSLATLGGKIISSNIVSGTTTKITTIPMTSKPNVIVVQKTTGKGTTIQGLPGKNVVTTLLNAGGEKTIQTVPTGAKPAILTATRPITKMIVTQPKGIGSTVQPAAKIIPTKIVYGQQGKTQVLIKPKPVTFQATVVSEQTRQLVTETLQQASRVAEAGNSSIQEGKEEPQNYTDSSSSSTESSQSSQDSQPVVHVIASRRQDWSEHEIAMETSPTIIYQDVSSESQSATSTIKALLELQQTTVKEKLESKPRQPTIDLSQMAVPIQMTQEKRHSPESPSIAVVESELVAEYITTERTDEGTEVAFPLLVSHRSQPQQPSQPQRTLLQHVAQSQTATQTSVVVKSIPASSPGAITHIMQQALSSHTAFTKHSEELGTEEGEVEEMDTLDPQTGLFYRSALTQSQSAKQQKLSQPPLEQTQLQVKTLQCFQTKQKQTIHLQADQLQHKLPQMPQLSIRHQKLTPLQQEQAQPKPDVQHTQHPMVAKDRQLPTLMAQPPQTVVQVLAVKTTQQLPKLQQAPNQPKIYVQPQTPQSQMSLPASSEKQTASQVEQPIITQGSSVTKITFEGRQPPTVTKITGGSSVPKLTSPVTSISPIQASEKTAVSDILKMSLMEAQIDTNVEHMIVDPPKKALATSMLTGEAGSLPSTHMVVAGMANSTPQQQKCRESCSSPSTVGSSLTTRKIDPPAVPATGQFMRIQNVGQKKAEESPAEIIIQAIPQYAIPCHSSSNVVVEPSGLLELNNFTSQQLDDEETAMEQDIDSSTEDGTEPSPSQSSAERS
B6: RFXANK (protein, UniProt O14593 1-260)
chain: MELTQPAEDLIQTQQTPASELGDPEDPGEEAADGSDTVVLSLFPCTPEPVNPEPDASVSSPQAGSSLKHSTTLTNRQRGNEVSALPATLDSLSIHQLAAQGELDQLKEHLRKGDNLVNKPDERGFTPLIWASAFGEIETVRFLLEWGADPHILAKERESALSLASTGGYTDIVGLLLERDVDINIYDWNGGTPLLYAVRGNHVKCVEALLARGADLTTEADSGYTPMDLAVALGYRKVQQVIENHILKLFQSNLVPADPE
B7: FAM181A (protein, UniProt Q8N9Y4 1-354)
chain: MPLEERRSSGERNDAAPTNHRRPGEKRASTAKQVSSVPFLGAAGHQQSLPSSWKASCSGPLVMASDSDVKMLLNFVNLASSDIKAALDKSAPCRRSVDHRKYLQKQLKRFSQKYSRLPRGLPGRAAEPYLKRGSEDRPRRLLLDLGPDSSPGGGGGCKEKVLRNPYREECLAKEQLPQRQHPEAAQPGQVPMRKRQLPASFWEEPRPTHSYHVGLEGGLGPREGPPYEGKKNCKGLEPLGPETTLVSMSPRALAEKEPLKMPGVSLVGRVNAWSCCPFQYHGQPIYPGPLGALPQSPVPSLGLWRKSPAFPGELAHLCKDVDGLGQKVCRPVVLKPIPTKPAVPPPIFNVFGYL

biological target: BirA-fused TEAD4 (human) (UniProt Q15561); test: proximity labelling; BioID: TEAD4-BirA in HEK293FT, in triplicate; biotin 500 μM; NETN lysis with micrococcal nuclease; streptavidin beads; label-free quantitative mass spectrometry

binding, binds:
B1, B2, B3, B4, B5, B6, B7
